Publication PMC9997211
These are yes or no findings as the source states them, for the method shown. In cells and extracts the contact can be indirect. Here binding means that the protein was enriched with, or labelled near, the bait; the list need not be complete.

Biological target: T1, ZEB1 (bait of the mass spectrometric analysis of ZEB1-interactive proteins) (UniProt P37275)
T1 sequence: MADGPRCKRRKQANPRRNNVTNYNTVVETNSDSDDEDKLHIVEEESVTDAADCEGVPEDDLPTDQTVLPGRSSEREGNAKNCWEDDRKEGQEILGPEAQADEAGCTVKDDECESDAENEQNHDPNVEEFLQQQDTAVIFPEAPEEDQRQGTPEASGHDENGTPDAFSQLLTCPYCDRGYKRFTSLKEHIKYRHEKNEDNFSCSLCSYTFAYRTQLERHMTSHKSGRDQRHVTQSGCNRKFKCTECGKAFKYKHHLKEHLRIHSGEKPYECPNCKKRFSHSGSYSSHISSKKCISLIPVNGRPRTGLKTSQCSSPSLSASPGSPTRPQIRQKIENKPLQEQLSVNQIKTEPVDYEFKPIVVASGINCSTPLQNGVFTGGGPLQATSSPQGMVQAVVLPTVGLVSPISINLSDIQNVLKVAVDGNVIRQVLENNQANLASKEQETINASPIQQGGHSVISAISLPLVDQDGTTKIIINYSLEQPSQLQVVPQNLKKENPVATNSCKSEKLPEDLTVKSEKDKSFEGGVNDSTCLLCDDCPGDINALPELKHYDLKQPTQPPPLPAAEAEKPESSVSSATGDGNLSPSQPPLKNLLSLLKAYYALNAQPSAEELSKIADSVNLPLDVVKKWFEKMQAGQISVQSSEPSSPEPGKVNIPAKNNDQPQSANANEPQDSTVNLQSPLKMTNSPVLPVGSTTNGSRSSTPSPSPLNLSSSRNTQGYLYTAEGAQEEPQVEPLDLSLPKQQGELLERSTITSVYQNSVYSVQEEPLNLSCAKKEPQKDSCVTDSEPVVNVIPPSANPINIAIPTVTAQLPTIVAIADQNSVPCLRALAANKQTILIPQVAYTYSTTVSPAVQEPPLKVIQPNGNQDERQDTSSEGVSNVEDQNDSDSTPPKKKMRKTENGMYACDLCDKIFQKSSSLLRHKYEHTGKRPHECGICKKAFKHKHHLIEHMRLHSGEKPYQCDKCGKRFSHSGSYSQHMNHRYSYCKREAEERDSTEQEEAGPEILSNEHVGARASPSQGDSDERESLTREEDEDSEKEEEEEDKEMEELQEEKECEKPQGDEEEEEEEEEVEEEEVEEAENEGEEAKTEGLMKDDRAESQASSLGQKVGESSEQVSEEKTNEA
Test: affinity purification with mass spectrometry; mass spectrometric analysis of ZEB1-interactive proteins whose interactions are regulated by the binding of Zn2+ to ZEB1; details only in Supplementary Figure 2A

binding: binds
B1: ZEB2 (protein, UniProt O60315 1-1214)
chain: MKQPIMADGPRCKRRKQANPRRKNVVNYDNVVDTGSETDEEDKLHIAEDDGIANPLDQETSPASVPNHESSPHVSQALLPREEEEDEIREGGVEHPWHNNEILQASVDGPEEMKEDYDTMGPEATIQTAINNGTVKNANCTSDFEEYFAKRKLEERDGHAVSIEEYLQRSDTAIIYPEAPEELSRLGTPEANGQEENDLPPGTPDAFAQLLTCPYCDRGYKRLTSLKEHIKYRHEKNEENFSCPLCSYTFAYRTQLERHMVTHKPGTDQHQMLTQGAGNRKFKCTECGKAFKYKHHLKEHLRIHSGEKPYECPNCKKRFSHSGSYSSHISSKKCIGLISVNGRMRNNIKTGSSPNSVSSSPTNSAITQLRNKLENGKPLSMSEQTGLLKIKTEPLDFNDYKVLMATHGFSGTSPFMNGGLGATSPLGVHPSAQSPMQHLGVGMEAPLLGFPTMNSNLSEVQKVLQIVDNTVSRQKMDCKAEEISKLKGYHMKDPCSQPEEQGVTSPNIPPVGLPVVSHNGATKSIIDYTLEKVNEAKACLQSLTTDSRRQISNIKKEKLRTLIDLVTDDKMIENHNISTPFSCQFCKESFPGPIPLHQHERYLCKMNEEIKAVLQPHENIVPNKAGVFVDNKALLLSSVLSEKGMTSPINPYKDHMSVLKAYYAMNMEPNSDELLKISIAVGLPQEFVKEWFEQRKVYQYSNSRSPSLERSSKPLAPNSNPPTKDSLLPRSPVKPMDSITSPSIAELHNSVTNCDPPLRLTKPSHFTNIKPVEKLDHSRSNTPSPLNLSSTSSKNSHSSSYTPNSFSSEELQAEPLDLSLPKQMKEPKSIIATKNKTKASSISLDHNSVSSSSENSDEPLNLTFIKKEFSNSNNLDNKSTNPVFSMNPFSAKPLYTALPPQSAFPPATFMPPVQTSIPGLRPYPGLDQMSFLPHMAYTYPTGAATFADMQQRRKYQRKQGFQGELLDGAQDYMSGLDDMTDSDSCLSRKKIKKTESGMYACDLCDKTFQKSSSLLRHKYEHTGKRPHQCQICKKAFKHKHHLIEHSRLHSGEKPYQCDKCGKRFSHSGSYSQHMNHRYSYCKREAEEREAAEREAREKGHLEPTELLMNRAYLQSITPQGYSDSEERESMPRDGESEKEHEKEGEDGYGKLGRQDGDEEFEEEEEESENKSMDTDPETIRDEEETGDHSMDDSSEDGKMETKSDHEEDNMEDGM
